Reference: the supplement of paper PMC12067093, “Discovery and optimisation of a covalent ligand for TRIM25 and its application to targeted protein ubiquitination” (Chemical Science, 2025)
The list shows a part of the results.

Sequences of proteins named here, by UniProt entry; tags and fusion partners are left off. A change or cut given only in a name is not applied to a line headed by its entry.
UniProt Q9HCN4, whole entry: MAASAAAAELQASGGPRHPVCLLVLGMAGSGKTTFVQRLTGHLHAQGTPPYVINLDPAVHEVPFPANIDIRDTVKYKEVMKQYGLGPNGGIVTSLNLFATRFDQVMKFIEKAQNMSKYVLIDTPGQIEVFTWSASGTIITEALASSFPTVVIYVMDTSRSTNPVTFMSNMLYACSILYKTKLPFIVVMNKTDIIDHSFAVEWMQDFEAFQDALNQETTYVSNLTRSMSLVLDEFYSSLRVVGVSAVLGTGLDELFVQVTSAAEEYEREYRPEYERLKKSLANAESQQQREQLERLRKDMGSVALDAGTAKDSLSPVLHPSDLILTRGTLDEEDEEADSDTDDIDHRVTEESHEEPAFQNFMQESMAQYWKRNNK
UniProt Q9UBQ7: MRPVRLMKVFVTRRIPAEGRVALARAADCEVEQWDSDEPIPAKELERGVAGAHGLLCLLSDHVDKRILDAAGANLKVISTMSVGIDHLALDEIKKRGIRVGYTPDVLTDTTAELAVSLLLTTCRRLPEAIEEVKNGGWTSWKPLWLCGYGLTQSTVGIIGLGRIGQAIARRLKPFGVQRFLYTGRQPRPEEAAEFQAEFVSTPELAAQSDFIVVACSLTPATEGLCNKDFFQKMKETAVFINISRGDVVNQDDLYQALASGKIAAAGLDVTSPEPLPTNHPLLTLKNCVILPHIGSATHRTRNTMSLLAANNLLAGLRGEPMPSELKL
UniProt P25098: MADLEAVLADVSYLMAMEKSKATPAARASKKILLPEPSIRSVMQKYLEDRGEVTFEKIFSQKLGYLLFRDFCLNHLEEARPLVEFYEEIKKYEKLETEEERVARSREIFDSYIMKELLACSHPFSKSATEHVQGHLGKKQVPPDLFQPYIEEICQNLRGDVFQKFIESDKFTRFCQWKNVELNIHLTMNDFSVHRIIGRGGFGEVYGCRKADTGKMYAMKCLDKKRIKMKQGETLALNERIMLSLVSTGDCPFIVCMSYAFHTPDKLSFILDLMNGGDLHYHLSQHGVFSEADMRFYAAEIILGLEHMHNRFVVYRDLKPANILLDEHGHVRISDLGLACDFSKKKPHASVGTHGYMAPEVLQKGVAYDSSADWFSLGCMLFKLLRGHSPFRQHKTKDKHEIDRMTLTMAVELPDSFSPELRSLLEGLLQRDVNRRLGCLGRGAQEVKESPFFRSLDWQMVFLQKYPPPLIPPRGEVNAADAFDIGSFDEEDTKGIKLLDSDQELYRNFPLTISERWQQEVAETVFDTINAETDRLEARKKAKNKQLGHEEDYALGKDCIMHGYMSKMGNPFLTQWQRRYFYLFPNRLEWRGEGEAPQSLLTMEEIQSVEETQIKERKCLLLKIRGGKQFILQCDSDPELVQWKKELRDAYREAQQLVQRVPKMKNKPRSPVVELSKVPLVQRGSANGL
UniProt Q8WW33: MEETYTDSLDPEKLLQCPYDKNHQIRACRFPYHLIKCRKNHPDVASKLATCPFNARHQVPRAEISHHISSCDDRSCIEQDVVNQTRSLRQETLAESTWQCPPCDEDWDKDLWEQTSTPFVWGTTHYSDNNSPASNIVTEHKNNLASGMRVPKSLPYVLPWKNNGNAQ

What follows are targets tested with CC1Cc2ccccc2N1C(=O)C1CCCN(C1)C(=O)CCl (mixture of isomers) [TRIM25 ligand 11 (diastereomer mixture)] (assay: probe-labelled cysteine peptide fold change vs DMSO (competition) (log2 fold change); higher = less target engagement (more negative = stronger competition)). Details: 50 µM; THP-1; incubation time: 4 h.
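Also: competitive chemoproteomic profiling in live THP-1 cells with an iodoacetamide desthiobiotin (IA-DTB) probe, comparing probe-labelled peptide intensities in compound-treated cells against DMSO-treated controls.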

Target | probe-labelled cysteine peptide fold change
GPN1_Q9HCN4_21_HPVCLLVLGMAGSGK (UniProt Q9HCN4) | -0.0368
GRHPR_Q9UBQ7_288_NCVILPHIGSATHR (UniProt Q9UBQ7) | 0.0258
GRK2_P25098_559_DCIMHGYMSK (UniProt P25098) | -0.219
GTSF1_Q8WW33_71_AEISHHISSCDDR (UniProt Q8WW33) | -0.55
